In article PMC3212559, “Large-Scale Protein-Protein Interaction Analysis in Arabidopsis Mesophyll Protoplasts by Split Firefly Luciferase Complementation” (PLoS ONE, 2011) one finds binding data, which are given here for one molecule.

Amino acid sequences for entries named in this document (tags omitted).
UniProt P93830: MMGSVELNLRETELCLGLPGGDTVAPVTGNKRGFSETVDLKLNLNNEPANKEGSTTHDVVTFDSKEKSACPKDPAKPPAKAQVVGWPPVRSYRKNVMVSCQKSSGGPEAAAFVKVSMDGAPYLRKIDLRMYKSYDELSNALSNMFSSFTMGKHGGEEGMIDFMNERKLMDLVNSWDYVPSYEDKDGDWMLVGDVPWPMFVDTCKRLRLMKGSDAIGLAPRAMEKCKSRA

Results are given in words; binding and its absence hold for the method and conditions named. In cells and extracts the contact can be indirect. For part of these data: Tags and fused reporters may be left off the sequences shown.

What all share (experiment): split reporter; SFLC in living Arabidopsis mesophyll protoplasts: Aux/IAA-FLucN or MYB30-FLucN co-expressed with ARFCTD-FLucC or Aux/IAA-FLucC for 6 hr; 10 µg of each construct, 2×10^4 cells, 96-well plate, D-luciferin; relative activity standardised against ARF5CTD-FLucC + IAA28-FLucN
In one assay the target is T1, IAA19-FLucC (Arabidopsis, UniProt O24409 1-197).
T1 construct: Arabidopsis Aux/IAA protein IAA19; also called Aux/IAA-FLucC; source: Arabidopsis mesophyll protoplasts, transfected, in living cells; not shown: FLucC (firefly luciferase aa 394-550)
T1 sequence (looked up): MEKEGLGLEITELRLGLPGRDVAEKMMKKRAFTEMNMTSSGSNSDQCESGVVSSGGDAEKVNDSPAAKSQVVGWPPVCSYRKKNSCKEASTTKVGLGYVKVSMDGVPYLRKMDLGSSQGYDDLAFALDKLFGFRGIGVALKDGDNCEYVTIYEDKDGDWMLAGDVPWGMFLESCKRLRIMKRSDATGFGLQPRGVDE

The next assay concerns the target T2, IAA14-FLucC (Arabidopsis, UniProt Q38832 1-228).
T2 construct: Arabidopsis Aux/IAA protein IAA14; also called Aux/IAA-FLucC; source: Arabidopsis mesophyll protoplasts, transfected, in living cells; not shown: FLucC (firefly luciferase aa 394-550)
T2 sequence (looked up): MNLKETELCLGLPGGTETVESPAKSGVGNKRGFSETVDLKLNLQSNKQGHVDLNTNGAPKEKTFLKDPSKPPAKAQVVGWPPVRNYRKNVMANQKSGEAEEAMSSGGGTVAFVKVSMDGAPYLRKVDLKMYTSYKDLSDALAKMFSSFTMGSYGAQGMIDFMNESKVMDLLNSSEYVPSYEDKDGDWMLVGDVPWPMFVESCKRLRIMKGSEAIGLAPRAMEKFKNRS

For another assay, the target named is T3, IAA17-FLucC (Arabidopsis, UniProt P93830 1-229).
T3 construct: Arabidopsis Aux/IAA protein IAA17; also called Aux/IAA-FLucC; source: Arabidopsis mesophyll protoplasts, transfected, in living cells; not shown: FLucC (firefly luciferase aa 394-550)

For another assay, the target named is T4, IAA7-FLucC (Arabidopsis, UniProt Q38825 1-243).
T4 construct: Arabidopsis Aux/IAA protein IAA7; also called Aux/IAA-FLucC; source: Arabidopsis mesophyll protoplasts, transfected, in living cells; not shown: FLucC (firefly luciferase aa 394-550)
T4 sequence (looked up): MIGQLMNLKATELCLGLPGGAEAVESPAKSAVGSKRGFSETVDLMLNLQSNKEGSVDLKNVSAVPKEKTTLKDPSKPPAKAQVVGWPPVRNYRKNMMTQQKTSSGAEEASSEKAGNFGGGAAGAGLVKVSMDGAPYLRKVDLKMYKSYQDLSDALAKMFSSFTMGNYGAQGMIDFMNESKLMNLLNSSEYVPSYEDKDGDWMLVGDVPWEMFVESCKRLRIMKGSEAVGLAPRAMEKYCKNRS

A further assay deals with T5, IAA9-FLucC (Arabidopsis, UniProt Q38827 1-338).
T5 construct: Arabidopsis Aux/IAA protein IAA9; also called Aux/IAA-FLucC; source: Arabidopsis mesophyll protoplasts, transfected, in living cells; not shown: FLucC (firefly luciferase aa 394-550)
T5 sequence (looked up): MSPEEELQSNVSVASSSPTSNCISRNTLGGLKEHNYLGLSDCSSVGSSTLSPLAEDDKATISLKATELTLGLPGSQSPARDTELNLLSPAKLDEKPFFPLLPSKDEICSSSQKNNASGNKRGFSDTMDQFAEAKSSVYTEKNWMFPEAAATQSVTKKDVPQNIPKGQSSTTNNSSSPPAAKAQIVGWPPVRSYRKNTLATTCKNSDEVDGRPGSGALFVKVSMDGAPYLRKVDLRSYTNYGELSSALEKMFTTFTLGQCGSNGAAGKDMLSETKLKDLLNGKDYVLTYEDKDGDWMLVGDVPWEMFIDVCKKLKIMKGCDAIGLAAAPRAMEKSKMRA

A further assay deals with T6, IAA18-FLucC (Arabidopsis, UniProt O24408 1-267).
T6 construct: Arabidopsis Aux/IAA protein IAA18; also called Aux/IAA-FLucC; source: Arabidopsis mesophyll protoplasts, transfected, in living cells; not shown: FLucC (firefly luciferase aa 394-550)
T6 sequence (looked up): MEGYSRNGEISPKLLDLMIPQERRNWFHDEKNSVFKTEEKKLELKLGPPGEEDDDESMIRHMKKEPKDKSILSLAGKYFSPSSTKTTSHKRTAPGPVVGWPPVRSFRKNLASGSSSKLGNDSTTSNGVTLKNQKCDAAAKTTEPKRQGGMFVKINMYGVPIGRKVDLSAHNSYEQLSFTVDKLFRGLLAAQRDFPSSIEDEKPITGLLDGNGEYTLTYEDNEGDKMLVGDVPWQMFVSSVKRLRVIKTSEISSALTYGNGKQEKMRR

B1: MYB30-FLucN (natural protein, UniProt Q9SCU7 1-323, looked up)
chain: MVRPPCCDKGGVKKGPWTPEEDIILVTYIQEHGPGNWRAVPTNTGLLRCSKSCRLRWTNYLRPGIKRGNFTEHEEKMIVHLQALLGNRWAAIASYLPQRTDNDIKNYWNTHLKKKLNKVNQDSHQELDRSSLSSSPSSSSANSNSNISRGQWERRLQTDIHLAKKALSEALSPAVAPIITSTVTTTSSSAESRRSTSSASGFLRTQETSTTYASSTENIAKLLKGWVKNSPKTQNSADQIASTEVKEVIKSDDGKECAGAFQSFSEFDHSYQQAGVSPDHETKPDITGCCSNQSQWSLFEKWLFEDSGGQIGDILLDENTNFF
notes: transcription factor MYB30, the unrelated protein used as negative control; source: Arabidopsis mesophyll protoplasts, transfected, in living cells; not shown: FLucN (firefly luciferase aa 1-398)
For B1, the binding entry in the assay with IAA19-FLucC, in the assay with IAA14-FLucC, in the assay with IAA17-FLucC, in the assay with IAA7-FLucC, in the assay with IAA9-FLucC and with IAA18-FLucC was “no binding (tested: relative luciferase activity below 0.1)” throughout.
